Laboratory results reported in the supplement of paper PMC10849652.
The list shows a part of the results.

Protein sequences, listed by entry. Tags and fused reporters are not part of them. Lines headed by an entry give the natural chain unless they say otherwise; changes in a name come on top.
UniProt O14757: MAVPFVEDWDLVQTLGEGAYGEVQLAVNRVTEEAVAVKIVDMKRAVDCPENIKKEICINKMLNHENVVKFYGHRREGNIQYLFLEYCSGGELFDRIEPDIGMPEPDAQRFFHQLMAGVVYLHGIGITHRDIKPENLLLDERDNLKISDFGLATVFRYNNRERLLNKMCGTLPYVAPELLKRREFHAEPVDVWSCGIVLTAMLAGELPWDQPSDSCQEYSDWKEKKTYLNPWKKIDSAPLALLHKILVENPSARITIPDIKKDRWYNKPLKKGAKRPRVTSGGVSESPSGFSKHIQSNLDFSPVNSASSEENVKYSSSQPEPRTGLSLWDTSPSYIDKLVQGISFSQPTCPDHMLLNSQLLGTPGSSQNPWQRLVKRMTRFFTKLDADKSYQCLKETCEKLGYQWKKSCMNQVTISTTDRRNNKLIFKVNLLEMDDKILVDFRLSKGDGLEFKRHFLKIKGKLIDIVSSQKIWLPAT
UniProt Q8IWX8: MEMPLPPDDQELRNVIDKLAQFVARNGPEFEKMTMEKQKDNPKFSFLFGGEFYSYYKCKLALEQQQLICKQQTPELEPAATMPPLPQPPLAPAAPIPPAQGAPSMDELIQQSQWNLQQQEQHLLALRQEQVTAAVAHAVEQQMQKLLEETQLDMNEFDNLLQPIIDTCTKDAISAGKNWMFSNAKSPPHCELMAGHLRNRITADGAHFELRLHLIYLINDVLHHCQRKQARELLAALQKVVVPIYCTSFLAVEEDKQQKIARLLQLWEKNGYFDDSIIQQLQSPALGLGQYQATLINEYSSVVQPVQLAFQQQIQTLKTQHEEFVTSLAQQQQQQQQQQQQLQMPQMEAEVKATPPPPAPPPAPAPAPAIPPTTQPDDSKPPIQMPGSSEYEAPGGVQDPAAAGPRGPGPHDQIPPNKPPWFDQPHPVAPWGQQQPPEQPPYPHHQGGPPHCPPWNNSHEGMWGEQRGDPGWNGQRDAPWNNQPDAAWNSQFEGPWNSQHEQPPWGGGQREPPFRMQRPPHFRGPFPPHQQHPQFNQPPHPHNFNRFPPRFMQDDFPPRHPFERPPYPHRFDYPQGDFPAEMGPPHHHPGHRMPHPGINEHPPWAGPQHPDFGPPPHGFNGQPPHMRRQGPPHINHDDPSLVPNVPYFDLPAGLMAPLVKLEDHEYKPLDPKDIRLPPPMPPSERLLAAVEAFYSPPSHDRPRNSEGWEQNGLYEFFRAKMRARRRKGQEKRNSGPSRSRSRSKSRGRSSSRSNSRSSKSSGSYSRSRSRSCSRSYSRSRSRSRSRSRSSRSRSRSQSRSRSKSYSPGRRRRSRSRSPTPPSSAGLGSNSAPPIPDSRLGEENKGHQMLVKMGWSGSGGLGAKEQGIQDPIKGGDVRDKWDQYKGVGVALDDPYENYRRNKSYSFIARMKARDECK
UniProt Q96KA5: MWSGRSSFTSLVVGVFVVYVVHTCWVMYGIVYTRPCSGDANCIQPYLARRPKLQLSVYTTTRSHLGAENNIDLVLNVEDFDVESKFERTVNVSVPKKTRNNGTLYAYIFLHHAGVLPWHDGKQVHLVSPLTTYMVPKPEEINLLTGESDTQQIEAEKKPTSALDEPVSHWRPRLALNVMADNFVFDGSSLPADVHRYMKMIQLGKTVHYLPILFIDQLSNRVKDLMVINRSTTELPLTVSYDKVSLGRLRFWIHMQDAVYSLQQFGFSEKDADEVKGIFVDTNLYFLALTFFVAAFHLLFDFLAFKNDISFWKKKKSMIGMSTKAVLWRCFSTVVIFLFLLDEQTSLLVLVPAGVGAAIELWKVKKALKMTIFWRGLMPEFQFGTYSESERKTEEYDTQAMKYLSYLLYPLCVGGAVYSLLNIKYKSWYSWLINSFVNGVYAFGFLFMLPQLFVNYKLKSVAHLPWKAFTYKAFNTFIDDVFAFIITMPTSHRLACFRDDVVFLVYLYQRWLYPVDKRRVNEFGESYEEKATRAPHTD
UniProt Q92989: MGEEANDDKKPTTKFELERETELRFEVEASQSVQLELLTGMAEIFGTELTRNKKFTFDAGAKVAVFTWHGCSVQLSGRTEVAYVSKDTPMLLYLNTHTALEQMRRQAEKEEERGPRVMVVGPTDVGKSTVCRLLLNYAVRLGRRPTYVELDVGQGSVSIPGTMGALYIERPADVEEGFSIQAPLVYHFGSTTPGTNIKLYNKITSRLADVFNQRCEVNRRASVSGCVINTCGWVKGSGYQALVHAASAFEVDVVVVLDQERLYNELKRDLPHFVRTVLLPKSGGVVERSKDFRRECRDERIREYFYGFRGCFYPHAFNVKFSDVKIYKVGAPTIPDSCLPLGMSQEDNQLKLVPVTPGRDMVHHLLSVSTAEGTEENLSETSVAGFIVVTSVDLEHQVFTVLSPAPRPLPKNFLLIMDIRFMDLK
UniProt Q96CF2: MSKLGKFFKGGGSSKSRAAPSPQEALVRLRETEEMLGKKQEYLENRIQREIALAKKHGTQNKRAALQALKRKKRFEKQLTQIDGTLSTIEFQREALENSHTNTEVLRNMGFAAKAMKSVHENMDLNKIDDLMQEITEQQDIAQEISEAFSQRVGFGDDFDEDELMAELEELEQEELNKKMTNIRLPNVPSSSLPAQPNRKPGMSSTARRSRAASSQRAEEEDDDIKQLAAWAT
UniProt Q9ULV3: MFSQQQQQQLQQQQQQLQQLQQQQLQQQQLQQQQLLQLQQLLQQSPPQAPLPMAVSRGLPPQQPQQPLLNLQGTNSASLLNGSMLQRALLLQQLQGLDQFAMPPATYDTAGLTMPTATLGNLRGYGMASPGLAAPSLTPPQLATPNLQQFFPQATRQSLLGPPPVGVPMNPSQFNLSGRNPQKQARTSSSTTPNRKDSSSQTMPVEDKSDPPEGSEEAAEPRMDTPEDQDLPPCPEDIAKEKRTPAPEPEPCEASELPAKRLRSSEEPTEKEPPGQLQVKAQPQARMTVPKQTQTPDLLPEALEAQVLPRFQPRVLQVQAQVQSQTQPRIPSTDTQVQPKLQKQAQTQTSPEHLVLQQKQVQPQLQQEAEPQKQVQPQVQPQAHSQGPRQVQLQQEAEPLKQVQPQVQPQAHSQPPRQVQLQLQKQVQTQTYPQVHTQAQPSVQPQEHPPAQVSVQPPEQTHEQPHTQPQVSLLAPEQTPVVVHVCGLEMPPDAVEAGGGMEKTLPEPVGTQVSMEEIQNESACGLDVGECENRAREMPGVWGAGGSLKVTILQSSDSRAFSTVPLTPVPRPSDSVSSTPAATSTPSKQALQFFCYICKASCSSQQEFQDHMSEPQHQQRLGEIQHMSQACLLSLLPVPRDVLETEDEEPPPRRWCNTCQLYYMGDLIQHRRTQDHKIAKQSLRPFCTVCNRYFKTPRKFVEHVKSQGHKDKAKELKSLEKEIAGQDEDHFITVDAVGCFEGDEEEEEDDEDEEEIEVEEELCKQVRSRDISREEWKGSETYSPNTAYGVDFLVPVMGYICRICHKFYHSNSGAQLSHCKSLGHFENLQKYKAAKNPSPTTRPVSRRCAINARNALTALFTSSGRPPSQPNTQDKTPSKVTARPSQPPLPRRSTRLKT
UniProt O76031, whole entry, looked up: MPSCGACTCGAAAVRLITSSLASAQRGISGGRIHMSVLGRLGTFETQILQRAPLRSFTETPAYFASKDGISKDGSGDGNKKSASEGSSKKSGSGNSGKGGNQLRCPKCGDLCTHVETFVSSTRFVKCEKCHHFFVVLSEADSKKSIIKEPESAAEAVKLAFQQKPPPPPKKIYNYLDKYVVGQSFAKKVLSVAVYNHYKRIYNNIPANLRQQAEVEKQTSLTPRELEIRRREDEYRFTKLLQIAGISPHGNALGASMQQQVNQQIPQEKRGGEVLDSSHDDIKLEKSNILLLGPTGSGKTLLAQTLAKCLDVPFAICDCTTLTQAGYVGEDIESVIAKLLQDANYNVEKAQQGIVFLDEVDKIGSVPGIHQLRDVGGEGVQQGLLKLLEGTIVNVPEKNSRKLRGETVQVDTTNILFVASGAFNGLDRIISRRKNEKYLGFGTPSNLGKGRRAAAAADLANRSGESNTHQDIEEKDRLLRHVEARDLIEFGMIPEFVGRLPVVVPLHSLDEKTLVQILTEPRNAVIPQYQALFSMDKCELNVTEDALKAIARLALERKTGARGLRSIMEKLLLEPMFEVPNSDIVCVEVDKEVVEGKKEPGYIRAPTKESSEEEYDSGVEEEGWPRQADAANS
UniProt P51798: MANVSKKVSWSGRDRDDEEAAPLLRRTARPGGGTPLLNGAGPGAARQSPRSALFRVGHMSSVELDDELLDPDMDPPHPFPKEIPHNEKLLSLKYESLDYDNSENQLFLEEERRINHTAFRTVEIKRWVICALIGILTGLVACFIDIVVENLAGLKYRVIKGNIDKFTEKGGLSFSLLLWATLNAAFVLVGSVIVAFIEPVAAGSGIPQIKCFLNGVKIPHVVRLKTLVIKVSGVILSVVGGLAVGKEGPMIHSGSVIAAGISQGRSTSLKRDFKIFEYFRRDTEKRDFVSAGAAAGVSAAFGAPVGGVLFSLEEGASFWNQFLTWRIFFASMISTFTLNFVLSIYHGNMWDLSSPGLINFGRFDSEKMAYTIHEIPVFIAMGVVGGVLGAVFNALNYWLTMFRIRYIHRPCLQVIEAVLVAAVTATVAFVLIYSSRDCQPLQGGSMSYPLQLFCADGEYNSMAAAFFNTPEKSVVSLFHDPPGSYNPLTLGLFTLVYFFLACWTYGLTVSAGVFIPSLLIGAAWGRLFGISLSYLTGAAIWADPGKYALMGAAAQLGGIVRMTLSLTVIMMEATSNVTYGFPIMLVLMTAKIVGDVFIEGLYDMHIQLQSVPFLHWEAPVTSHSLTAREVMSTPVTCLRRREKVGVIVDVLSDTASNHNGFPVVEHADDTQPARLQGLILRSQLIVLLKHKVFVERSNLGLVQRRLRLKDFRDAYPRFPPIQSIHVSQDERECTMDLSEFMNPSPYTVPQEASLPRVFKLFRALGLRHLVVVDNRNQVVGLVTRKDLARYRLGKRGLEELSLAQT
UniProt Q9BY43: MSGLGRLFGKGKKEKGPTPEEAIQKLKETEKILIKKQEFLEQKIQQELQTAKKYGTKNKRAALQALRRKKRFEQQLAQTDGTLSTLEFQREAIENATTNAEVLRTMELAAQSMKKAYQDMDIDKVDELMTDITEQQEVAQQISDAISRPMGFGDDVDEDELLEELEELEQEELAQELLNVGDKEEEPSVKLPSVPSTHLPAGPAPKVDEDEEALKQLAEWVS
UniProt Q9H444: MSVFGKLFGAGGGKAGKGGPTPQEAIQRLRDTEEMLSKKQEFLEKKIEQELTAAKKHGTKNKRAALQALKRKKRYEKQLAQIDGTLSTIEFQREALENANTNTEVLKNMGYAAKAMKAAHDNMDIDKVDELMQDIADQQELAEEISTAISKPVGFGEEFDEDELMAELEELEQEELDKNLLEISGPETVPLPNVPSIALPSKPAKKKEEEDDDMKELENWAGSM
UniProt Q96S66: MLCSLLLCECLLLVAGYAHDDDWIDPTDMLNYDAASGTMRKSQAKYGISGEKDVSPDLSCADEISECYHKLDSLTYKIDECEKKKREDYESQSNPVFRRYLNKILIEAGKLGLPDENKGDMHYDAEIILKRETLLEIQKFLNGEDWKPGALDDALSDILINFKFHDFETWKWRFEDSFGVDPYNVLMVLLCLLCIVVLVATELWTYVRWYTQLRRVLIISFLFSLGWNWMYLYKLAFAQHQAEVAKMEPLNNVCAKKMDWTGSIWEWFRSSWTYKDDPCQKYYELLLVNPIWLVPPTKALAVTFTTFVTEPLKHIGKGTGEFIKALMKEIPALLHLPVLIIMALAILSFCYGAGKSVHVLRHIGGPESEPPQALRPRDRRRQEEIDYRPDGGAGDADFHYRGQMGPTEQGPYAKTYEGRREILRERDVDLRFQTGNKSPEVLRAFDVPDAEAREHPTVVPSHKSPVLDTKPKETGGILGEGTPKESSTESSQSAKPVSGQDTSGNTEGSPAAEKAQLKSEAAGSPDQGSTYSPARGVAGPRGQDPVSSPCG
UniProt Q8WUX9: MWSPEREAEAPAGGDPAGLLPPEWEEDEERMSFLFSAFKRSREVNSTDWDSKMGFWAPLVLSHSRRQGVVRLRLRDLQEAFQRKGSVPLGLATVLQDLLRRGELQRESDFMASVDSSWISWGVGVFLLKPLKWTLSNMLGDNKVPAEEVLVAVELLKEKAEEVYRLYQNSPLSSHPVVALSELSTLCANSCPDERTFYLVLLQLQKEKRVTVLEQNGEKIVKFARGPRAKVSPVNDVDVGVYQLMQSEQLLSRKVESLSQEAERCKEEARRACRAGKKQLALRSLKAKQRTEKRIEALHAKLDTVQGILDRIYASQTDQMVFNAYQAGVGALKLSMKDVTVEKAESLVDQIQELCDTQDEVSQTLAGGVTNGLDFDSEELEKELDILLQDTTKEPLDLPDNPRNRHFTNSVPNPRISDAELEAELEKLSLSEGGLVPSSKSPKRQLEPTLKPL

Tests used:
Experiment in all cases: log2 fold change, soluble protein after heating vs DMSO (PISA); higher = thermal stabilisation; K562 lysate, 10 uM; active = over 0.2 and 3.5 SD of the protein, either way, in both replicates (recomputed)
vemurafenib = compound: CCCS(=O)(=O)Nc1ccc(F)c(C(=O)c2c[nH]c3ncc(-c4ccc(Cl)cc4)cc23)c1F [vemurafenib]
In short: (§1)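 The values are log-two fold changes in thermal stability compared with solvent controls and come from duplicates. They were obtained by TMTpro 16plex LC-MS/MS, with channel sums equalised, on the supernatant after 21,000xg for 90 min. That supernatant came from crude K562 extract at 1 mg/mL protein treated with 10 μM compound for 30 min, heated for 3 min across 48°C-58°C, pooled and brought to 0.5% NP-40 at 4°C.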

[1] = compound: CCCS(=O)(=O)Nc1ccc(F)c(C(=O)c2c[nH]c3ncc(Cl)cc23)c1F
In short: as §1

barasertib = compound: CCN(CCCOc1ccc2c(Nc3cc(CC(=O)Nc4cccc(F)c4)[nH]n3)ncnc2c1)CCOP(=O)(O)O [barasertib]
In short: as §1

[2] = compound: CC[C@@H]1C(=O)N(C)c2cnc(Nc3ccc(C(=O)NC4CCN(C)CC4)cc3OC)nc2N1C1CCCC1
In short: as §1

volasertib = compound: CC[C@@H]1C(=O)N(C)c2cnc(Nc3ccc(C(=O)N[C@H]4CC[C@H](N5CCN(CC6CC6)CC5)CC4)cc3OC)nc2N1C(C)C [volasertib]
In short: as §1

[3] = compound: CCn1c(C(=O)N(C2CC2)C2CC2)cc2c3c(ncn3C)c(Nc3cc(C)n(C)n3)nc21
In short: as §1

[4] = compound: CCn1cc(-c2ccnc3[nH]c(-c4cccc(CN(C)C)c4)cc23)c(-c2ccc(NC(=O)N(C)C)cc2)n1
In short: as §1

[5] = compound: CN1CCC(CNc2ccc3ncc(-c4cccc(OC(F)(F)F)c4)n3n2)CC1
In short: as §1

saracatinib = compound: CN1CCN(CCOc2cc(OC3CCOCC3)c3c(Nc4c(Cl)ccc5c4OCO5)ncnc3c2)CC1 [saracatinib]
In short: as §1

sotrastaurin = compound: CN1CCN(c2nc(C3=C(c4c[nH]c5ccccc45)C(=O)NC3=O)c3ccccc3n2)CC1 [sotrastaurin]
In short: as §1

| Target | log2 fold change (vemurafenib) | log2 fold change [1] | log2 fold change (barasertib) | log2 fold change [2] | log2 fold change (volasertib) | log2 fold change [3] | log2 fold change [4] | log2 fold change [5] | log2 fold change (saracatinib) | log2 fold change (sotrastaurin) |
| --- | --- | --- | --- | --- | --- | --- | --- | --- | --- | --- |
| CHEK1 (UniProt O14757) | inactive: -0.02 | inactive: 0.006 | inactive: 0.015 | inactive: -0.031 | inactive: -0.012 | inactive: -0.012 | inactive: -0.008 | inactive: -0.045 | inactive: -0.004 | inactive: -0.014 |
| CHERP (UniProt Q8IWX8) | inactive: 0 | inactive: -0.003 | inactive: 0.038 | inactive: -0.039 | inactive: -0.028 | inactive: 0.011 | inactive: 0.031 | inactive: -0.007 | inactive: 0.03 | inactive: 0.008 |
| CLPTM1L (UniProt Q96KA5) | inactive: -0.006 | inactive: 0.049 | inactive: 0.079 | inactive: 0.067 | inactive: -0.043 | inactive: 0.012 | inactive: -0.099 | inactive: 0.016 | inactive: 0.049 | inactive: -0.001 |
| CLP1 (UniProt Q92989) | inactive: -0.035 | inactive: 0 | inactive: 0.03 | inactive: -0.045 | inactive: -0.05 | inactive: 0.015 | inactive: -0.13 | inactive: 0.096 | inactive: 0.115 | inactive: 0.036 |
| CHMP4C (UniProt Q96CF2) | inactive: -0.02 | inactive: 0.001 | inactive: -0.021 | inactive: 0.05 | inactive: 0.006 | inactive: -0.04 | inactive: 0.534 | inactive: 0.06 | inactive: 0 | inactive: -0.042 |
| CIZ1 (UniProt Q9ULV3) | inactive: 0.003 | inactive: -0.003 | inactive: 0.015 | inactive: 0.104 | inactive: 0 | inactive: -0.084 | inactive: -0.003 | inactive: 0.008 | inactive: -0.013 | inactive: -0.001 |
| CLPX (UniProt O76031) | inactive: 0.03 | inactive: 0.02 | inactive: 0.037 | inactive: -0.008 | inactive: -0.076 | inactive: -0.006 | inactive: 0.026 | inactive: 0.024 | inactive: 0.022 | inactive: 0.006 |
| CLCN7 (UniProt P51798) | inactive: 0.026 | inactive: 0.007 | inactive: 0.03 | inactive: 0.007 | inactive: -0.015 | inactive: 0.032 | inactive: -0.029 | inactive: 0.02 | inactive: 0.008 | inactive: 0.071 |
| CMIP (UniProt Q8IY22) | inactive: 0.009 | inactive: 0.023 | inactive: 0.04 | inactive: -0.055 | inactive: -0.057 | inactive: 0.043 | inactive: -0.043 | inactive: -0.054 | inactive: 0.014 | inactive: 0.017 |
| CHMP4A isoform 2 (UniProt Q9BY43) | inactive: 0 | inactive: -0.002 | inactive: -0.053 | inactive: 0.064 | inactive: 0.039 | inactive: -0.002 | active: -0.278 | inactive: 0.222 | inactive: 0.048 | inactive: 0.024 |
| CHMP4B (UniProt Q9H444) | inactive: 0.046 | inactive: 0.025 | inactive: -0.042 | inactive: 0.047 | inactive: 0.028 | inactive: 0.031 | inactive: 0.043 | inactive: -0.02 | inactive: -0.021 | inactive: -0.017 |
| CLCC1 (UniProt Q96S66) | inactive: 0.001 | inactive: 0.011 | inactive: 0.017 | inactive: 0.01 | inactive: 0.031 | inactive: 0.026 | inactive: -0.07 | inactive: 0.059 | inactive: 0.036 | inactive: -0.03 |
| CLPB isoform 2 (UniProt Q9H078) | inactive: 0.011 | inactive: 0.023 | inactive: 0.026 | inactive: 0.007 | inactive: -0.042 | inactive: 0.044 | inactive: 0.078 | inactive: -0.045 | inactive: 0.004 | inactive: -0.012 |
| CHMP7 (UniProt Q8WUX9) | inactive: -0.036 | inactive: 0.018 | inactive: 0.029 | inactive: 0.109 | inactive: 0.002 | inactive: -0.001 | inactive: -0.11 | inactive: -0.012 | inactive: 0.003 | inactive: 0.061 |
| CHCHD1 (UniProt Q96BP2) | inactive: 0.157 | inactive: -0.025 | inactive: -0.002 | inactive: 0.028 | inactive: -0.001 | inactive: -0.075 | active: 1.08 | inactive: -0.338 | inactive: 0.032 | inactive: 0.16 |

For reference, part of the list above.

| Target | log2 fold change (vemurafenib) | log2 fold change [1] | log2 fold change (barasertib) | log2 fold change [2] | log2 fold change (volasertib) | log2 fold change [3] | log2 fold change [4] | log2 fold change [5] | log2 fold change (saracatinib) | log2 fold change (sotrastaurin) |
| --- | --- | --- | --- | --- | --- | --- | --- | --- | --- | --- |
| CLPX (UniProt O76031) | inactive: 0.03 | inactive: 0.02 | inactive: 0.037 | inactive: -0.008 | inactive: -0.076 | inactive: -0.006 | inactive: 0.026 | inactive: 0.024 | inactive: 0.022 | inactive: 0.006 |
| CLCN7 (UniProt P51798) | inactive: 0.026 | inactive: 0.007 | inactive: 0.03 | inactive: 0.007 | inactive: -0.015 | inactive: 0.032 | inactive: -0.029 | inactive: 0.02 | inactive: 0.008 | inactive: 0.071 |
